The record followed here is publication PMC12334701.

Amino acid sequences for entries named in this document (tags omitted).
UniProt P23198: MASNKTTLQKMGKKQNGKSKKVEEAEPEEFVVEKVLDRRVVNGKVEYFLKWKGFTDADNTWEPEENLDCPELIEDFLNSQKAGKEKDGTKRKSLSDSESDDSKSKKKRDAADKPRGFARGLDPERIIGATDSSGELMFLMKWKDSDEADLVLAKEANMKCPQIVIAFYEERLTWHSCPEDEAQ
UniProt Q6Q783: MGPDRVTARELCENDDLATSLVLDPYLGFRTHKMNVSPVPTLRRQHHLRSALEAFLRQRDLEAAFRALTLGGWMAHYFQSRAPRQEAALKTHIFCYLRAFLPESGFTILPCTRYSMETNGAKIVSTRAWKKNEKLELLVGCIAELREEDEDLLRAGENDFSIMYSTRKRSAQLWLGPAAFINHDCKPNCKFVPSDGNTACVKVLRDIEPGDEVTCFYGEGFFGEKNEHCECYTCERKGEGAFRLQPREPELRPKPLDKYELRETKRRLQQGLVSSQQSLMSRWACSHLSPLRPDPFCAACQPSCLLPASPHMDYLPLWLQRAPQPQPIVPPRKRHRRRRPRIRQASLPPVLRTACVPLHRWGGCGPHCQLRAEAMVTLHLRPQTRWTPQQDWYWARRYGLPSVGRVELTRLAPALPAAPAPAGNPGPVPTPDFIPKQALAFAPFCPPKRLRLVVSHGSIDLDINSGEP

These are yes or no findings as the source states them, for the method shown. In cells and extracts the contact can be indirect. Some entries that bind do so weakly or less than the wild type.

For this assay, the target named is HP1γ with C-terminal GFP (pCAG-HP1γ-GFP) (mouse) (UniProt P23198). The assay is described as follows: co-IP; HEK293T cells transfected with GFP-tagged HP1 constructs and myc-DKK-tagged SUV420H2; RIPA lysates, sonicated; IP with mouse anti-myc 9B11 or goat anti-GFP and protein G sepharose, 4 °C; western blot. A general note: Immunoblotting shows a protein as a band on a membrane.

In the case of “SUV420H2 with C-terminal myc-DKK (from UniProt Q6Q783 1-468) (enzyme)”, the binding result is listed as “binds”.
